Test results from paper PMC5116814, “Potent, Reversible, and Specific Chemical Inhibitors of Eukaryotic Ribosome Biogenesis” (Cell, 2016).
Results are given in words; binding and its absence hold for the method and conditions named. Binding seen in cells or lysates may run through a third protein. Binding calls can cover weak binding; strength is not graded here. Where a sequence is shown, tags or fusion partners need not be part of it.

Target: T1, Nsa1-5FLAG (S. pombe) (UniProt O94698)
T1 sequence: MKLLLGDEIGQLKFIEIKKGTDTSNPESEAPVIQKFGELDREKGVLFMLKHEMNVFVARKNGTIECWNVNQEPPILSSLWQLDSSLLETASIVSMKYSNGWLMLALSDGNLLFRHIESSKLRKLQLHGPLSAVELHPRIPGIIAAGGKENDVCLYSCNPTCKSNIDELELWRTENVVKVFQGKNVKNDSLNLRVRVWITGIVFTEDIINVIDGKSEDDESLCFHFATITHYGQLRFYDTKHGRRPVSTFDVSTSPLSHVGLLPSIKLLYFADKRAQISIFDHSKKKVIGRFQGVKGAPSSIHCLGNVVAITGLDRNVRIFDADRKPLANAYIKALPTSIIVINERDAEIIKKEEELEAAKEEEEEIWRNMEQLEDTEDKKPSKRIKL
Experiment: co-IP; Rix1-5FLAG or Nsa1-5FLAG immunoprecipitated with anti-FLAG M2 antibody and Dynabeads Protein G, 1 hr at 4°C, from S. pombe whole cell extracts; western blot with anti-HA, anti-FLAG or anti-GFP; wild-type, mdn1-ts26 (6 hr at 36°C) or mdn1-F1093L cells, untreated or treated with Rbin-1 (1 uM) for the indicated times

binding: binds
Substance: Rix7-GFP (S. pombe)
